Laboratory results published in article PMC8058060, “The transcriptional activator of the bfp operon in EPEC (PerA) interacts with the RNA polymerase alpha subunit” (Scientific Reports, 2021).
No constants are given. Whether binding was seen depends on the method and setting. Binding seen in cells or lysates may run through a third protein. Here binding means that the protein was enriched with, or labelled near, the bait; the list need not be complete. Sequences can lack the tags named with a protein.

Amino acid sequences for entries named in this document (tags omitted).
UniProt P0A9E5: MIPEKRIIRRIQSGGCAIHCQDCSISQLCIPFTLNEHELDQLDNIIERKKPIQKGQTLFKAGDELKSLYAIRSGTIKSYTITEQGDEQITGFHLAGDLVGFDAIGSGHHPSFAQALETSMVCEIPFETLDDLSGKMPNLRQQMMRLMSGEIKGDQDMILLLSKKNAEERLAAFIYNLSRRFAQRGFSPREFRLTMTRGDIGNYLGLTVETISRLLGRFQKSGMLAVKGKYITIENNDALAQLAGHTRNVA
UniProt P0A7Z4: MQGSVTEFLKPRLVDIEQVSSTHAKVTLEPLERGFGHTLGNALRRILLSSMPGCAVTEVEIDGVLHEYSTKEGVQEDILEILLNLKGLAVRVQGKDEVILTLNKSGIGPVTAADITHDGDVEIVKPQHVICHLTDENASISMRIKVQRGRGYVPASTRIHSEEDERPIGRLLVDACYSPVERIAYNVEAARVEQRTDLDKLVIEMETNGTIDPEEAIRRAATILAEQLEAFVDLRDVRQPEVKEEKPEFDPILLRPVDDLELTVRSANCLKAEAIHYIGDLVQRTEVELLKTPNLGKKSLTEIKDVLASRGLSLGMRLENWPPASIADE
UniProt P00579: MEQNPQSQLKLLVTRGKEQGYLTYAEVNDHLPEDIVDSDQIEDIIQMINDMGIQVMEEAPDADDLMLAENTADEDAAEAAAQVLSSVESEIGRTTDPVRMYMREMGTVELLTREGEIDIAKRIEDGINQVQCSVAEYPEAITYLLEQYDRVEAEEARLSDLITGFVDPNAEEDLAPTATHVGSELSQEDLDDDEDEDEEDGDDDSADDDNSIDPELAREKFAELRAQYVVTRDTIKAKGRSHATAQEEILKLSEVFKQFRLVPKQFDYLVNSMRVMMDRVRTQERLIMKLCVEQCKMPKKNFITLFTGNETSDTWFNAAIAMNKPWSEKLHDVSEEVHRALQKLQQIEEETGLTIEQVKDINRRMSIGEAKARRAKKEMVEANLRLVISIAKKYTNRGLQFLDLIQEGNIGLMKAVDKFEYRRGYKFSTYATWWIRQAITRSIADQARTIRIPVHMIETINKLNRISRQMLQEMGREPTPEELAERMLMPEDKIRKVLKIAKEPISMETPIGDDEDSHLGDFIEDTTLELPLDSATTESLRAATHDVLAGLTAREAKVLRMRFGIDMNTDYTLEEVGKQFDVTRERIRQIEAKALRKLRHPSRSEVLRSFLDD

T1: MBP-PerA fusion (enteropathogenic E. coli (EPEC)) (UniProt P43459)
T1 sequence: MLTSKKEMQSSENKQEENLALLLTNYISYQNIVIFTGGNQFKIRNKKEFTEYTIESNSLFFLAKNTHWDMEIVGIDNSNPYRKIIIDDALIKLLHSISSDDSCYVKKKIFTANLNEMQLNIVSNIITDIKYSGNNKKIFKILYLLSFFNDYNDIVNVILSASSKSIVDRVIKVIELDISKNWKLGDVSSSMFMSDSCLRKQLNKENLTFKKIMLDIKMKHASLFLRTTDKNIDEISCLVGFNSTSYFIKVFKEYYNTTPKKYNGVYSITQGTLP

B1: DNA-binding protein H-NS (protein, UniProt P0ACF8 1-137)
chain: MSEALKILNNIRTLRAQARECTLETLEEMLEKLEVVVNERREEESAAAAEVEERTRKLQQYREMLIADGIDPNELLNSLAAVKSGTKAKRAQRPAKYSYVDENGETKTWTGQGRTPAVIKKAMDEQGKSLDDFLIKQ
B2: ATP-dependent Clp protease ATP-binding subunit ClpA (protein, UniProt P0ABH9 1-758)
chain: MLNQELELSLNMAFARAREHRHEFMTVEHLLLALLSNPSAREALEACSVDLVALRQELEAFIEQTTPVLPASEEERDTQPTLSFQRVLQRAVFHVQSSGRNEVTGANVLVAIFSEQESQAAYLLRKHEVSRLDVVNFISHGTRKDEPTQSSDPGSQPNSEEQAGGEERMENFTTNLNQLARVGGIDPLIGREKELERAIQVLCRRRKNNPLLVGESGVGKTAIAEGLAWRIVQGDVPEVMADCTIYSLDIGSLLAGTKYRGDFEKRFKALLKQLEQDTNSILFIDEIHTIIGAGAASGGQVDAANLIKPLLSSGKIRVIGSTTYQEFSNIFEKDRALARRFQKIDITEPSIEETVQIINGLKPKYEAHHDVRYTAKAVRAAVELAVKYINDRHLPDKAIDVIDEAGARARLMPVSKRKKTVNVADIESVVARIARIPEKSVSQSDRDTLKNLGDRLKMLVFGQDKAIEALTEAIKMARAGLGHEHKPVGSFLFAGPTGVGKTEVTVQLSKALGIELLRFDMSEYMERHTVSRLIGAPPGYVGFDQGGLLTDAVIKHPHAVLLLDEIEKAHPDVFNILLQVMDNGTLTDNNGRKADFRNVVLVMTTNAGVRETERKSIGLIHQDNSTDAMEEIKKIFTPEFRNRLDNIIWFDHLSTDVIHQVVDKFIVELQVQLDQKGVSLEVSQEARNWLAEKGYDRAMGARPMARVIQDNLKKPLANELLFGSLVDGGQVTVALDKEKNELTYGFQSAQKHKAEAAH
B3: DNA-binding transcriptional regulator KdgR (protein, UniProt P76268 1-263)
chain: MANADLDKQPDSVSSVLKVFGILQALGEEREIGITELSQRVMMSKSTVYRFLQTMKTLGYVAQEGESEKYSLTLKLFELGARALQNVDLIRSADIQMRELSRLTKETIHLGALDEDSIVYIHKIDSMYNLRMYSRIGRRNPLYSTAIGKVLLAWRDRDEVKQILEGVEYKRSTERTITSTEALLPVLDQVREQGYGEDNEEQEEGLRCIAVPVFDRFGVVIAGLSISFPTLRFSEERLQEYVAMLHTAARKISAQMGYHDYPF

target: T1, MBP-PerA fusion (enteropathogenic E. coli (EPEC)); assay: affinity purification with mass spectrometry; purified MBP-PerA or MBP (40 µg) immobilised on 70 µl amylose magnetic beads (2 h, 4 °C), mixed with 400 µl ΔperA and WT E2348/69 soluble cell extracts for 4 h at 4 °C; ten washes; SDS-PAGE, differential bands cut for LC-MS/MS; only the target purified

Question: With “Transcriptional regulator FNR (from UniProt P0A9E5 1-250)” as the molecule, how does the binding read?
Answer: binds

Question: “DNA-directed RNA polymerase subunit alpha (endogenous) (from UniProt P0A7Z4 1-329)” was tested. Which binding did it give?
Answer: binds

Question: How did the binding turn out when “DNA-directed RNA polymerase sigma factor RpoD (from UniProt P00579 1-613)” was run?
Answer: binds

Question: How did the binding turn out when B1 was run?
Answer: binds

Question: B2 was tested. Which binding did it give?
Answer: binds

Question: With B3 as the molecule, how does the binding read?
Answer: binds
